Assay results as given in publication PMC8894927, “Oxylipin signaling in salt-stressed soybean is modulated by ligand-dependent interaction of Class II acyl-CoA-binding proteins with lipoxygenase” (The Plant Cell, 2021).

Test system: (His)6-GmACBP4.1_33–354
Assay: Isothermal titration calorimetry of acyl-CoA binding (WT protein)
Parameters: species or system soybean
Settings: ITC at 25°C, mean ± SD, three experiments; for n, stoichiometry (number of ligand sites per protein): 15 μM protein titrated with 200 μM acyl-CoA
Protocol: ITC was conducted with a MicroCal iTC200 system (GE Healthcare) at 25°C in 10 mM sodium phosphate (pH 7) by 20 injections of 1.8-μL acyl-CoAs (200 μM; Avanti Polar Lipids Inc., Alabaster, AL, USA) into the sample cell with 15 μM purified (His)6-GmACBP4.1. Each injection lasted 4 s at 150-s intervals with a stirring speed of 1,000 rpm. Nonspecific heat effects were estimated and corrected after saturation. The baseline was adjusted, and the data were fitted into a single-site binding model using the Origin version 7.0 software (OriginLab).
Supplemental Table 1. Binding constants and thermodynamic parameters for (His)6-GmACBP4.133–354 interaction with acyl-CoAs. (Supports Figure 5A) […]
Isothermal titration calorimetry analysis was performed by titration of 250 μL of 15 μM (His)6-GmACBP4.133–354 with […]
from three independent experiments. n, stoichiometry (number of ligand sites per protein); KD, dissociation constant; ∆H, enthalpy change; −T∆S, entropy change; ∆G, Gibbs free energy.

Structure (SMILES) | n, stoichiometry (number of ligand sites per protein) | ∆H, enthalpy change [kcal/mol] | −T∆S, entropy change [kcal/mol] | ∆G, Gibbs free energy [kcal/mol]
CCCCCCCCCCCCCCCC(=O)SCCNC(=O)CCNC(=O)[C@H](O)C(C)(C)COP(=O)(O)OP(=O)(O)OC[C@H]1O[C@@H](n2cnc3c(N)ncnc32)[C@H](O)[C@@H]1OP(=O)(O)O [C16:0-CoA] | 1.08 ± 0.02 | -4.00 ± 0.09 | -4.30 ± 0.28 | 
CCCCCCCC/C=C\CCCCCCCC(=O)SCCNC(=O)CCNC(=O)[C@H](O)C(C)(C)COP(=O)(O)OP(=O)(O)OC[C@H]1O[C@@H](n2cnc3c(N)ncnc32)[C@H](O)[C@@H]1OP(=O)(O)O [C18:1-CoA] | 1.22 ± 0.02 | -4.10 ± 0.08 | -4.32 ± 0.42 | -8.42 ± 0.50
CCCCC/C=C\C/C=C\CCCCCCCC(=O)SCCNC(=O)CCNC(=O)[C@H](O)C(C)(C)COP(=O)(O)OP(=O)(O)OC[C@H]1O[C@@H](n2cnc3c(N)ncnc32)[C@H](O)[C@@H]1OP(=O)(O)O [C18:2-CoA, linoleoyl-CoA] | 1.03 ± 0.02 | -4.58 ± 0.11 | -3.64 ± 0.32 | -8.22 ± 0.43
CC/C=C\C/C=C\C/C=C\CCCCCCCC(=O)SCCNC(=O)CCNC(=O)[C@H](O)C(C)(C)COP(=O)(O)OP(=O)(O)OC[C@H]1O[C@@H](n2cnc3c(N)ncnc32)[C@H](O)[C@@H]1OP(=O)(O)O [C18:3-CoA, linolenoyl-CoA] | 1.14 ± 0.03 | -3.73 ± 0.15 | -4.36 ± 0.31 | -8.09 ± 0.46
